Measurements: PMC9890231
These are yes or no findings as the source states them, for the method shown. Some binding calls cover weakened binding; strength is not graded here.

Legend:
[1] = target: T1, Brn1 (kleisin subunit of budding yeast condensin) (S. cerevisiae) (UniProt P38170); assay: tandem affinity co-purification (HisTrap, Strep-Tactin) + SEC; subunits co-overexpressed in S. cerevisiae; cleared lysate on HisTrap (Brn1-His12), eluted with imidazole; then Strep-Tactin resin (Smc4-StrepII3), eluted with desthiobiotin; then Superose 6; holo-complex and ∆Ycg1 tetramer
T1 sequence: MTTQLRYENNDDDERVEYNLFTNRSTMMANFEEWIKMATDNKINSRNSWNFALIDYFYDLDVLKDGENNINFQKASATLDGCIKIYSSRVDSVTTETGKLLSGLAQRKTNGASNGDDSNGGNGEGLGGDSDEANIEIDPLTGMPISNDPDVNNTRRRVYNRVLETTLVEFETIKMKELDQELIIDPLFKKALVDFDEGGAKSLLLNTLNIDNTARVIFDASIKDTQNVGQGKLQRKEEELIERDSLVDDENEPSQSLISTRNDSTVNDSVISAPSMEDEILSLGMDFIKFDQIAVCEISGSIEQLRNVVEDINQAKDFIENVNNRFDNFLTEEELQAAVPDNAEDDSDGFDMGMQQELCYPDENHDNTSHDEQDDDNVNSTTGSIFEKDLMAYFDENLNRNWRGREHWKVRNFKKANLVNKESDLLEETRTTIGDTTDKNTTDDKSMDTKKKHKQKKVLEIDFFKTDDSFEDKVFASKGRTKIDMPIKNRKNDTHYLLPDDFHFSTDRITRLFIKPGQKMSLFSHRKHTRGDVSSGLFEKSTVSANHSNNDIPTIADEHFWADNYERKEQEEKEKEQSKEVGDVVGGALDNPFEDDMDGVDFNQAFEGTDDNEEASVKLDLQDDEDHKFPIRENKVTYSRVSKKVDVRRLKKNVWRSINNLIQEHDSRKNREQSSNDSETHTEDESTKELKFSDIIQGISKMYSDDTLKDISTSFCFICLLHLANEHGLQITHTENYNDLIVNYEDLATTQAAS

[2] = target: T2, Smc4 (SMC subunit of budding yeast condensin) (S. cerevisiae) (UniProt Q12267); assay: as above
T2 sequence: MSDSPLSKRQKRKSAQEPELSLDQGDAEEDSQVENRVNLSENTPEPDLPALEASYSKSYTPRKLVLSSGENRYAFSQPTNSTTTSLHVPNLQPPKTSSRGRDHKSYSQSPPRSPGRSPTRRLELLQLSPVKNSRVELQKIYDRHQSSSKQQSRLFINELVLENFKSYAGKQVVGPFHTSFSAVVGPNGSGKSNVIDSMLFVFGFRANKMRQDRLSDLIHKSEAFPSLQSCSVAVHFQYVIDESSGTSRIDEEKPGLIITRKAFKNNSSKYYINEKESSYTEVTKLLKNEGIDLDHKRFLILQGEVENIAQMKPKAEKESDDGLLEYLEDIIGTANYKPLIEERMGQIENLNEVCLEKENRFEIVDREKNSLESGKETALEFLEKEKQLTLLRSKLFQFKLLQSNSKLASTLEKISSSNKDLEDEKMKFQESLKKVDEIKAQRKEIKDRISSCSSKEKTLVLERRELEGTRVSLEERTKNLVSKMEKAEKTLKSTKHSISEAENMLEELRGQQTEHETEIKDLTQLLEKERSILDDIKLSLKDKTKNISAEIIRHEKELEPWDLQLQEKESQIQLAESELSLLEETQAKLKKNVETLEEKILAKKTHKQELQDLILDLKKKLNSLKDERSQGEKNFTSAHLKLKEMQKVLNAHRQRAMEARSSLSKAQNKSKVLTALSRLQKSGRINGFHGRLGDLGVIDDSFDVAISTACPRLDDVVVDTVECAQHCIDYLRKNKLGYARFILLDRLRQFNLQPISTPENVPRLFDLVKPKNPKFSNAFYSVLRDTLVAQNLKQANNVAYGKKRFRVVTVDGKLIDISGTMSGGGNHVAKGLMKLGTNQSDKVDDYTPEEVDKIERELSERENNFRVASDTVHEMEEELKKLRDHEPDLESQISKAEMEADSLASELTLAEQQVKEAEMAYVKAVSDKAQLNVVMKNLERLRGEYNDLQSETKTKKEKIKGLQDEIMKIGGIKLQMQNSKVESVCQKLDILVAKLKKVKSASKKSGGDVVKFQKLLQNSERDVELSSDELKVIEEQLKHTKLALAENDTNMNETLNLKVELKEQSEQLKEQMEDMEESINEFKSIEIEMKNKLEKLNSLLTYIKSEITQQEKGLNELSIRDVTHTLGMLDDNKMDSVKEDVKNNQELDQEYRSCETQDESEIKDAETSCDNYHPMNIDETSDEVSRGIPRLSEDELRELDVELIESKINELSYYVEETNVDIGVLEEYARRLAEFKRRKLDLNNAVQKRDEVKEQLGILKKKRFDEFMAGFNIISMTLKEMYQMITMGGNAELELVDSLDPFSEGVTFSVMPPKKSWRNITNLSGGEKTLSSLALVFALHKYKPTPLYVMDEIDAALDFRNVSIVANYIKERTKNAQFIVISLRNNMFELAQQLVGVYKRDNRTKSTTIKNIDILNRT

Row | Binder | binding [1] | binding [2]
1 | Smc4 (SMC subunit of budding yeast condensin) (protein, UniProt Q12267 1-1418) MSDSPLSKRQKRKSAQEPELSLDQGDAEEDSQVENRVNLSENTPEPDLPALEASYSKSYTPRKLVLSSGENRYAFSQPTNSTTTSLHVPNLQPPKTSSRGRDHKSYSQSPPRSPGRSPTRRLELLQLSPVKNSRVELQKIYDRHQSSSKQQSRLFINELVLENFKSYAGKQVVGPFHTSFSAVVGPNGSGKSNVIDSMLFVFGFRANKMRQDRLSDLIHKSEAFPSLQSCSVAVHFQYVIDESSGTSRIDEEKPGLIITRKAFKNNSSKYYINEKESSYTEVTKLLKNEGIDLDHKRFLILQGEVENIAQMKPKAEKESDDGLLEYLEDIIGTANYKPLIEERMGQIENLNEVCLEKENRFEIVDREKNSLESGKETALEFLEKEKQLTLLRSKLFQFKLLQSNSKLASTLEKISSSNKDLEDEKMKFQESLKKVDEIKAQRKEIKDRISSCSSKEKTLVLERRELEGTRVSLEERTKNLVSKMEKAEKTLKSTKHSISEAENMLEELRGQQTEHETEIKDLTQLLEKERSILDDIKLSLKDKTKNISAEIIRHEKELEPWDLQLQEKESQIQLAESELSLLEETQAKLKKNVETLEEKILAKKTHKQELQDLILDLKKKLNSLKDERSQGEKNFTSAHLKLKEMQKVLNAHRQRAMEARSSLSKAQNKSKVLTALSRLQKSGRINGFHGRLGDLGVIDDSFDVAISTACPRLDDVVVDTVECAQHCIDYLRKNKLGYARFILLDRLRQFNLQPISTPENVPRLFDLVKPKNPKFSNAFYSVLRDTLVAQNLKQANNVAYGKKRFRVVTVDGKLIDISGTMSGGGNHVAKGLMKLGTNQSDKVDDYTPEEVDKIERELSERENNFRVASDTVHEMEEELKKLRDHEPDLESQISKAEMEADSLASELTLAEQQVKEAEMAYVKAVSDKAQLNVVMKNLERLRGEYNDLQSETKTKKEKIKGLQDEIMKIGGIKLQMQNSKVESVCQKLDILVAKLKKVKSASKKSGGDVVKFQKLLQNSERDVELSSDELKVIEEQLKHTKLALAENDTNMNETLNLKVELKEQSEQLKEQMEDMEESINEFKSIEIEMKNKLEKLNSLLTYIKSEITQQEKGLNELSIRDVTHTLGMLDDNKMDSVKEDVKNNQELDQEYRSCETQDESEIKDAETSCDNYHPMNIDETSDEVSRGIPRLSEDELRELDVELIESKINELSYYVEETNVDIGVLEEYARRLAEFKRRKLDLNNAVQKRDEVKEQLGILKKKRFDEFMAGFNIISMTLKEMYQMITMGGNAELELVDSLDPFSEGVTFSVMPPKKSWRNITNLSGGEKTLSSLALVFALHKYKPTPLYVMDEIDAALDFRNVSIVANYIKERTKNAQFIVISLRNNMFELAQQLVGVYKRDNRTKSTTIKNIDILNRT | binds | –
2 | Smc2 (SMC subunit of budding yeast condensin) (protein, UniProt P38989 1-1170) MKVEELIIDGFKSYATRTVITDWDPQFNAITGLNGSGKSNILDAICFVLGIASMSTVRASSLQDLIYKRGQAGVTKASVTIVFDNTDKSNSPIGFTNSPQISVTRQVVLGGTSKYLINGHRAPQQSVLQLFQSVQLNINNPNFLIMQGKITKVLNMKPSEILSLIEEAAGTKMFEDRREKAERTMSKKETKLQENRTLLTEEIEPKLEKLRNEKRMFLEFQSTQTDLEKTERIVVSYEYYNIKHKHTSIRETLENGETRMKMLNEFVKKTSEEIDSLNEDVEEIKLQKEKELHKEGTISKLENKENGLLNEISRLKTSLSIKVENLNDTTEKSKALESEIASSSAKLIEKKSAYANTEKDYKMVQEQLSKQRDLYKRKEELVSTLTTGISSTGAADGGYNAQLAKAKTELNEVSLAIKKSSMKMELLKKELLTIEPKLKEATKDNELNVKHVKQCQETCDKLRARLVEYGFDPSRIKDLKQREDKLKSHYYQTCKNSEYLKRRVTNLEFNYTKPYPNFEASFVHGVVGQLFQIDNDNIRYATALQTCAGGRLFNVVVQDSQTATQLLERGRLRKRVTIIPLDKIYTRPISSQVLDLAKKIAPGKVELAINLIRFDESITKAMEFIFGNSLICEDPETAKKITFHPKIRARSITLQGDVYDPEGTLSGGSRNTSESLLVDIQKYNQIQKQIETIQADLNHVTEELQTQYATSQKTKTIQSDLNLSLHKLDLAKRNLDANPSSQIIARNEEILRDIGECENEIKTKQMSLKKCQEEVSTIEKDMKEYDSDKGSKLNELKKELKLLAKELEEQESESERKYDLFQNLELETEQLSSELDSNKTLLHNHLKSIESLKLENSDLEGKIRGVEDDLVTVQTELNEEKKRLMDIDDELNELETLIKKKQDEKKSSELELQKLVHDLNKYKSNTNNMEKIIEDLRQKHEFLEDFDLVRNIVKQNEGIDLDTYRERSKQLNEKFQELRKKVNPNIMNMIENVEKKEAALKTMIKTIEKDKMKIQETISKLNEYKRETLVKTWEKVTLDFGNIFADLLPNSFAKLVPCEGKDVTQGLEVKVKLGNIWKESLIELSGGQRSLIALSLIMALLQFRPAPMYILDEVDAALDLSHTQNIGHLIKTRFKGSQFIVVSLKEGMFANANRVFRTRFQDGTSVVSIM | binds | binds
3 | Ycg1 (HAWK subunit of budding yeast condensin) (protein, UniProt Q06680 1-1035) MQDPDGIDINTKIFNSVAEVFQKAQGSYAGHRKHIAVLKKIQSKAVEQGYEDAFNFWFDKLVTKILPLKKNEIIGDRIVKLVAAFIASLERELILAKKQNYKLTNDEEGIFSRFVDQFIRHVLRGVESPDKNVRFRVLQLLAVIMDNIGEIDESLFNLLILSLNKRIYDREPTVRIQAVFCLTKFQDEEQTEHLTELSDNEENFEATRTLVASIQNDPSAEVRRAAMLNLINDNNTRPYILERARDVNIVNRRLVYSRILKSMGRKCFDDIEPHIFDQLIEWGLEDRELSVRNACKRLIAHDWLNALDGDLIELLEKLDVSRSSVCVKAIEALFQSRPDILSKIKFPESIWKDFTVEIAFLFRAIYLYCLDNNITEMLEENFPEASKLSEHLNHYILLRYHHNDISNDSQSHFDYNTLEFIIEQLSIAAERYDYSDEVGRRSMLTVVRNMLALTTLSEPLIKIGIRVMKSLSINEKDFVTMAIEIINDIRDDDIEKQEQEEKIKSKKINRRNETSVDEEDENGTHNDEVNEDEEDDNISSFHSAVENLVQGNGNVSESDIINNLPPEKEASSATIVLCLTRSSYMLELVNTPLTENILIASLMDTLITPAVRNTAPNIRELGVKNLGLCCLLDVKLAIDNMYILGMCVSKGNASLKYIALQVIVDIFSVHGNTVVDGEGKVDSISLHKIFYKVLKNNGLPECQVIAAEGLCKLFLADVFTDDDLFETLVLSYFSPINSSNEALVQAFAFCIPVYCFSHPAHQQRMSRTAADILLRLCVLWDDLQSSVIPEVDREAMLKPNIIFQQLLFWTDPRNLVNQTGSTKKDTVQLTFLIDVLKIYAQIEKKEIKKMIITNINAIFLSSEQDYSTLKELLEYSDDIAENDNLDNVSKNALDKLRNNLNSLIEEINERSETQTKDENNTANDQYSSILGNSFNKSSNDTIEHAADITDGNNTELTKTTVNISAVDNTTEQSNSRKRTRSEAEQIDTSKNLENMSIQDTSTVAKNVSFVLPDEKSDAMSIDEEDKDSESFSEVC | binds | –
